The source of these data is patent US20210085756A1, “SUPERACTIVE MUTANT THYMIDINE KINASE FOR USE IN CANCER THERAPY” (MEDIZINISCHE UNIVERSITÄT WIEN, priority 2017, published 2021).

For this series, the system named is HeLa cervix carcinoma cells. Description: growth curves of superTk1 stable transfectant HeLa clone 117 with dTh, 5-FU or AraC +/- doxycyclin.

For the molecule `O=c1[nH]cc(F)c(=O)[nH]1` [5-FU, 5-fluorouracil], the “amount still giving significant inhibition relative to amount used in the literature” value (5 μM (0.65 μg/ml) versus 55.44 μg/ml) is recorded as 1/85.
Consider `Cc1cn([C@H]2C[C@H](O)[C@@H](CO)O2)c(=O)[nH]c1=O` [dTh, deoxythymidine], for which, under “superTk1 expressing HeLa, 0.1 mM dTh”, the “fraction of standard dTh concentration sufficient for S-phase block” value is listed as 1/50.
